Test results reported in patent US20260317367A1, “SALTS INCLUDING CRYSTALLINE SALTS OF 25-HYDROXY-CHOLEST-5-EN-3-SULFATE AND METHODS FOR PREPARING SAME” (Durect Corporation, priority 2022, published 2026).
Where a name gives a salt, the structure may show the parent alone. This continues a long series; more values of the same kind are listed elsewhere.

Test: Solubility of 25HC3S salts after one day at room temperature (HPLC, as free acid)
Format: physicochemical
Settings: 1440 min; for Solubility in ACN: acetonitrile; for Solubility in EtOH: ethanol; for Solubility in EtOH / Solubility in MeOH: ≥ = did not reach saturation; for Solubility in IPA: isopropyl alcohol; for Solubility in MeOH: methanol; for Solubility in H2O: water
Experimental: These fluids were prepared per the instruction listed by Biorelevant (Biorelevant.com). Each buffer concentrate was diluted with water and mixed well. FaSSIF, FeSSIF, FaSSGF powder was added to each buffer and mixed to completely dissolve the powder. Buffers were stored at room temperature and used within 48 hours of preparation.
25HC3S salts were weighed in 8 mL or 4 mL glass vials with Teflon coated screw caps. Aliquots of each solvent were added to each sample and vortexed for about one minute until excess solid remained. Samples were placed on shaker at room temperature with 210 motion per minute shaking.
After one day, samples were pulled and checked if excess solid was present. About 1.5 mL aliquot of each sample was centrifuged at 12000 rpm for 12 to 15 minutes. […] Aliquots of the top clear solution of each centrifuged sample in MeOH, EtOH, IPA and ACN were diluted with diluent (water:MeOH 95:5) and assayed by HPLC. Samples of the salts in aqueous media were assayed by HPLC without dilution.
All solubility sample solutions of 25HC3S salts were determined using HPLC. A linear standard curve was constructed using standards with concentration between 11 μg/mL to 1.5 mg/mL as free acid forcing the curve to origin. Solubilities are reported as mg/mL free acid 25HC3S. Detection limit (LOD) of the HPLC method was calculated as 0.0007 mg/mL.

[1] = ND = not detected, detection limit 0.7 μg/mL, listed as 25HC3S potassium
[2] = ND = not detected, detection limit 0.7 μg/mL, listed as 25HC3S calcium
[3] = listed as 25HC3S hydroxyethylpyrrolidinium
[4] = ND = not detected, detection limit 0.7 μg/mL, listed as 25HC3S meglumine
[5] = ND = not detected, detection limit 0.7 μg/mL, listed as 25HC3S tromethammonium
[6] = listed as 25HC3S tromethammonium
[7] = ND = not detected, detection limit 0.7 μg/mL, listed as 25HC3S diethanolamine
[8] = listed as 25HC3S diethanolamine
[9] = ND = not detected, detection limit 0.7 μg/mL, listed as 25HC3S t-butylammonium
[10] = listed as 25HC3S t-butylammonium
[11] = ND = not detected, detection limit 0.7 μg/mL, listed as 25HC3S magnesium

For `CC(CCCC(C)(C)O)C1CCC2C3CC=C4CC(OS(=O)(=O)O)CCC4(C)C3CCC12C` (stereo not shown) [Salt #1], the “Solubility in 5% Dextrose” value [1] was 35 µg/mL, the “Solubility in FaSSGF” value [1] was 2 µg/mL and the “Solubility in FaSSIF” value (listed as 25HC3S potassium) was 79 µg/mL. For the same compound, the “Solubility in FeSSIF” value (listed as 25HC3S potassium) was 521 µg/mL, the “Solubility in ACN” value (listed as 25HC3S potassium) was 100 µg/mL and the “Solubility in EtOH” value (listed as 25HC3S potassium) was 900 µg/mL. For the same compound, the “Solubility in IPA” value (listed as 25HC3S potassium) was 200 µg/mL, the “Solubility in MeOH” value (listed as 25HC3S potassium) was 5100 µg/mL and the “Solubility in H2O” value [1] was 38 µg/mL.
In the case of `CC(CCCC(C)(C)O)C1CCC2C3CC=C4CC(OS(=O)(=O)O)CCC4(C)C3CCC12C` (stereo not shown) [Salt #2], the “Solubility in 5% Dextrose” value [2] is reported as 5 µg/mL, the “Solubility in FaSSGF” value [2] is reported as 5 µg/mL and the “Solubility in FaSSIF” value (listed as 25HC3S calcium) is reported as 152 µg/mL. For the same compound, the “Solubility in FeSSIF” value (listed as 25HC3S calcium) was 629 µg/mL, the “Solubility in ACN” value (listed as 25HC3S calcium) was 4 µg/mL and the “Solubility in EtOH” value (listed as 25HC3S calcium) was 1000 µg/mL. The “Solubility in IPA” value (listed as 25HC3S calcium) was 20 µg/mL, the “Solubility in MeOH” value (listed as 25HC3S calcium) was 27400 µg/mL and the “Solubility in H2O” value [2] was 6 µg/mL.
For `CC(CCCC(C)(C)O)C1CCC2C3CC=C4CC(OS(=O)(=O)O)CCC4(C)C3CCC12C` (stereo not shown) [Salt #6], the “Solubility in FeSSIF” value [3] was 857 µg/mL, the “Solubility in EtOH” value [3] was no less than 15700 µg/mL and the “Solubility in MeOH” value [3] was no less than 48200 µg/mL.
With `CC(CCCC(C)(C)O)C1CCC2C3CC=C4CC(OS(=O)(=O)O)CCC4(C)C3CCC12C` (stereo not shown) [Salt #7] the “Solubility in 5% Dextrose” value [4] was 113 µg/mL, the “Solubility in FaSSGF” value [4] was 48 µg/mL and the “Solubility in FaSSIF” value (listed as 25HC3S meglumine) was 134 µg/mL. For the same compound, the “Solubility in FeSSIF” value (listed as 25HC3S meglumine) was 653 µg/mL, the “Solubility in ACN” value (listed as 25HC3S meglumine) was 40 µg/mL and the “Solubility in EtOH” value (listed as 25HC3S meglumine) was 2900 µg/mL. The “Solubility in IPA” value (listed as 25HC3S meglumine) was 400 µg/mL, the “Solubility in MeOH” value (listed as 25HC3S meglumine) was 18900 µg/mL and the “Solubility in H2O” value [4] was 158 µg/mL.
With `CC(CCCC(C)(C)O)C1CCC2C3CC=C4CC(OS(=O)(=O)O)CCC4(C)C3CCC12C` (stereo not shown) [Salt #8] the “Solubility in 5% Dextrose” value [5] was 130 µg/mL, the “Solubility in FaSSGF” value [5] was 11 µg/mL and the “Solubility in FaSSIF” value [6] was 138 µg/mL. The “Solubility in FeSSIF” value [6] was 722 µg/mL, the “Solubility in ACN” value [6] was 100 µg/mL and the “Solubility in EtOH” value [6] was 18100 µg/mL. For the same compound, the “Solubility in IPA” value [6] was 3200 µg/mL, the “Solubility in MeOH” value [6] was 39600 µg/mL and the “Solubility in H2O” value [5] was 120 µg/mL.
For `CC(CCCC(C)(C)O)C1CCC2C3CC=C4CC(OS(=O)(=O)O)CCC4(C)C3CCC12C` (stereo not shown) [Salt #9], the “Solubility in FaSSIF” value (listed as 25HC3S benzathine) was 4 µg/mL, the “Solubility in FeSSIF” value (listed as 25HC3S benzathine) was 25 µg/mL and the “Solubility in ACN” value (listed as 25HC3S benzathine) was 30 µg/mL. For the same compound, the “Solubility in EtOH” value (listed as 25HC3S benzathine) was 70 µg/mL, the “Solubility in IPA” value (listed as 25HC3S benzathine) was 30 µg/mL and the “Solubility in MeOH” value (listed as 25HC3S benzathine) was 200 µg/mL. The “Solubility in H2O” value (ND = not detected, detection limit 0.7 μg/mL, listed as 25HC3S benzathine) was 5 µg/mL.
In the case of `CC(CCCC(C)(C)O)C1CCC2C3CC=C4CC(OS(=O)(=O)O)CCC4(C)C3CCC12C` (stereo not shown) [Salt #10], the “Solubility in 5% Dextrose” value [7] is reported as 69 µg/mL, the “Solubility in FaSSGF” value [7] is reported as 11 µg/mL and the “Solubility in FaSSIF” value [8] is reported as 157 µg/mL. The “Solubility in FeSSIF” value [8] was 858 µg/mL, the “Solubility in ACN” value [8] was 200 µg/mL and the “Solubility in EtOH” value [8] was 19400 µg/mL. The “Solubility in IPA” value [8] was 3700 µg/mL, the “Solubility in MeOH” value [8] was no less than 64200 µg/mL and the “Solubility in H2O” value [7] was 83 µg/mL.
For `CC(CCCC(C)(C)O)C1CCC2C3CC=C4CC(OS(=O)(=O)O)CCC4(C)C3CCC12C` (stereo not shown) [Salt #12], the “Solubility in 0.9% NaCl” value (0.9% NaCl, ND = not detected, detection limit 0.7 μg/mL, listed as 25HC3S t-butylammonium) was 3 µg/mL, the “Solubility in 5% Dextrose” value [9] was 26 µg/mL and the “Solubility in FaSSGF” value [9] was 28 µg/mL. The “Solubility in FaSSIF” value [10] was 162 µg/mL, the “Solubility in FeSSIF” value [10] was 787 µg/mL and the “Solubility in ACN” value [10] was 100 µg/mL. The “Solubility in EtOH” value [10] was 15000 µg/mL, the “Solubility in IPA” value [10] was 3300 µg/mL and the “Solubility in MeOH” value [10] was 39600 µg/mL. For the same compound, the “Solubility in H2O” value [9] was 29 µg/mL.
With `CC(CCCC(C)(C)O)C1CCC2C3CC=C4CC(OS(=O)(=O)O)CCC4(C)C3CCC12C` (stereo not shown) [Salt #13] the “Solubility in 5% Dextrose” value [11] was 8 µg/mL, the “Solubility in FaSSIF” value (listed as 25HC3S magnesium) was 96 µg/mL and the “Solubility in FeSSIF” value (listed as 25HC3S magnesium) was 479 µg/mL. For the same compound, the “Solubility in ACN” value (listed as 25HC3S magnesium) was 10 µg/mL, the “Solubility in EtOH” value (listed as 25HC3S magnesium) was no less than 26700 µg/mL and the “Solubility in IPA” value (listed as 25HC3S magnesium) was 2500 µg/mL. For the same compound, the “Solubility in MeOH” value (listed as 25HC3S magnesium) was no less than 69000 µg/mL and the “Solubility in H2O” value [11] was 6 µg/mL.
